In PMC11749472 one finds binding data, which are given here for three molecules.

Sequences of proteins named here, by UniProt entry; tags and fusion partners are left off.
UniProt Q9UKV5: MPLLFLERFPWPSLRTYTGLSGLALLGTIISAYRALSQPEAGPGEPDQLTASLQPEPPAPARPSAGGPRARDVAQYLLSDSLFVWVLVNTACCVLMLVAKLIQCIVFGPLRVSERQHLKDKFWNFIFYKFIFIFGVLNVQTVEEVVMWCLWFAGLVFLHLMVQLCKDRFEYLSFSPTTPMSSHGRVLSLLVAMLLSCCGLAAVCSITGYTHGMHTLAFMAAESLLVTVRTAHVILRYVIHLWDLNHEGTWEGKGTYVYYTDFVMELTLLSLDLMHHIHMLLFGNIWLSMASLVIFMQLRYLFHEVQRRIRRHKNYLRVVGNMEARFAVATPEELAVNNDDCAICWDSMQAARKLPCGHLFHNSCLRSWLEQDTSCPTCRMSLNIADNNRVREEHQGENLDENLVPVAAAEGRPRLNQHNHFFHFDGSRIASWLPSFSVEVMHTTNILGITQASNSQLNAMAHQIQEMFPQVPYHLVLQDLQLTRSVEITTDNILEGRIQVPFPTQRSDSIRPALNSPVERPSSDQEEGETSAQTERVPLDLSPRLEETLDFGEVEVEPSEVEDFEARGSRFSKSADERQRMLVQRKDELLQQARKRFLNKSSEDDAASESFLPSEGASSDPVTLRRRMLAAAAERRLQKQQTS

Common to all, as to assay: co-IP; HEK293T lysates in co-IP buffer (50 mM Tris-HCl pH 7.4, 150 mM NaCl, 1% NP-40, 1 mM EDTA, 5% glycerol), mouse anti-Flag beads at 4°C overnight, Western blot; for ARM-TIR also with USP13 OE, USP13 KD (siRNA cocktail) or USP13^AE OE
A general note: Immunoblotting shows a protein as a band on a membrane.

Experiment [1] deals with T1, SARM1-Flag (human), Q6SZW1.
T1 chain: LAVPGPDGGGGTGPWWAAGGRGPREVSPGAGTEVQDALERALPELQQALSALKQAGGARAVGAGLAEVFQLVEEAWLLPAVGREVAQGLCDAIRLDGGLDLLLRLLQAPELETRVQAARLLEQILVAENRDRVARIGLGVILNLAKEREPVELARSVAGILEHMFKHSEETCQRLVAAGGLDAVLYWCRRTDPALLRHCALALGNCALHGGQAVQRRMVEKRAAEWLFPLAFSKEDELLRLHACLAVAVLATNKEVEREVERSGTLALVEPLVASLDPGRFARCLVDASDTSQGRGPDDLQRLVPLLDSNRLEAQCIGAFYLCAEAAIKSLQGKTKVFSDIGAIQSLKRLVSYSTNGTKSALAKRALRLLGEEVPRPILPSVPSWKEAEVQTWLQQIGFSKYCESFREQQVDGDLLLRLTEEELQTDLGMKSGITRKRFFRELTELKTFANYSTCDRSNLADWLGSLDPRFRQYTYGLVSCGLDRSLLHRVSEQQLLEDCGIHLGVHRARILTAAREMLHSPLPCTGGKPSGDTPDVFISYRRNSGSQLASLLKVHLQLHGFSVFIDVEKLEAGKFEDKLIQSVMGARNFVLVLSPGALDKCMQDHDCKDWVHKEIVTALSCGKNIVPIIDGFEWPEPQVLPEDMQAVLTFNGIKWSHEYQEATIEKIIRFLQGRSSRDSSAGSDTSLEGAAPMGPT
As to conditions: remark: other sources report otherwise.

Experiment [2] addresses T2, USP13-Flag (human), Q92995.
T2 chain: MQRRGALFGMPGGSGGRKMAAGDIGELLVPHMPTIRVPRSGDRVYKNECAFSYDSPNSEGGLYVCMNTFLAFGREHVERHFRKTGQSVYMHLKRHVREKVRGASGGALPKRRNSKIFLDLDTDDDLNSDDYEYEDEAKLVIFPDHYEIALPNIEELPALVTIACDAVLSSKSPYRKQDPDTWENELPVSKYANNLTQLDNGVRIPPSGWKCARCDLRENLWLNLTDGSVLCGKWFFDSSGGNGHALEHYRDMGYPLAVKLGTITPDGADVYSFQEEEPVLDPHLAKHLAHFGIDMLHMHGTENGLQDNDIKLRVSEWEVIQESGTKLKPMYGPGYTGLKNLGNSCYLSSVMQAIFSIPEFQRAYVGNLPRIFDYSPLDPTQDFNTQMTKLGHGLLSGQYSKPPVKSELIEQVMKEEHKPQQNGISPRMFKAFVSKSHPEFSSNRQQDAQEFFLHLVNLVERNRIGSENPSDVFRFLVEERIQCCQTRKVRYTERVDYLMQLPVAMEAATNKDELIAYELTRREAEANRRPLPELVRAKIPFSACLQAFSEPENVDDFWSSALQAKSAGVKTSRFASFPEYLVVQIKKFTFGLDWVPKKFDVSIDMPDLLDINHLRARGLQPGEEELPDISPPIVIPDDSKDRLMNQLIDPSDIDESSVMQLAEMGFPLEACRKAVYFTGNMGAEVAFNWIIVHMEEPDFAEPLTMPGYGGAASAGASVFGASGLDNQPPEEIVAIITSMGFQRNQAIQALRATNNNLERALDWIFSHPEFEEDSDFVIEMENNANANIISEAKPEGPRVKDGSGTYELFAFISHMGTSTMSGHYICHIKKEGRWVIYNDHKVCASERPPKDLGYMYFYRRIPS
Conditions: remark: other sources report otherwise.

In a further experiment the target is GP78-Flag (human) (UniProt Q9UKV5).

No constants are given. Whether binding was seen depends on the method and setting. In cells and extracts the contact can be indirect. Some entries that bind do so weakly or less than the wild type. For part of these data: Tags and fused reporters may be left off the sequences shown.

B1: WT USP13 (myc-USP13 or USP13-HA), Q92995 1-863 (enzyme)
chain: T2 chain
Take B1: the binding result in experiment [1] is recorded as “binds”.

B2: endogenous SARM1 (HEK293T), Q6SZW1 28-724 (protein)
chain: T1 chain
Turning to B2, in experiment [2], the binding entry is reported as “binds”.

B3: endogenous SARM1 (HEK293T) (protein, UniProt Q6SZW1 28-724)
chain: T1 chain
For B3, the binding result with GP78-Flag (human) is “binds”.
